Laboratory results: patent publication US10350188B2, “Use of Neu1 sialidase inhibitors in the treatment of cancer” (priority 2011, dated 2019)
For at least one compound, name, drawing or mass did not settle the structure.

Columns and labels:
TLR4/MD2 = details: HEK293 cells stably transfected with TLR4/MD2; cited from earlier work
[1] = test system: PANC-1 human pancreatic cancer cells implanted in RAG1/Cγ double mutant NOD xenograft mice; test: PANC-1 pancreatic cancer xenograft in RAG1/Cγ double mutant NOD mice; details: oseltamivir phosphate 5 mg/kg; alone day 90, with abraxane 0.5 day 90, with gemcitabine 30 day 109
[2] = test system: MiaPaCa-2-eGFP pancreatic cancer cells implanted in RAG2/Cγ double mutant Balbc xenograft mice; test: MiaPaCa-2-eGFP pancreatic cancer xenograft in RAG2/Cγ double mutant Balbc mice; format: in vivo, mouse; details: oseltamivir phosphate monotherapy 2, 10, 50 and 100 mg/kg i.p.; vs untreated control
Procedure: Tumour measurements were taken twice a week.
MiaPaCa-2-eGFP pancreatic cancer cells at 1.5×10^6 in 0.2 mL were implanted subcutaneously in the right back flank of these mice. Each mouse in the study was identified by an ear punch number. Twice a week each mouse following implantation of the cancer cells was monitored for tumour volume growth (length and width) at the site of implantation, body weights, and body condition scoring. Scoring the body condition of rodents is a non-invasive method for assessing health and establishing endpoints for adults where body weight is not a viable monitoring tool, such as with tumour models. Body condition scores (BC) range from 1(emaciation) to 5 (obesity). An anticipated BCS of 2—under conditioned—or lower, requires justification in the protocol. Scores are determined by frequent visual and hands-on examination of each animal. The hands-on evaluation is done by gently holding the mouse by the base of the tail and passing a finger over the sacroiliac bones. The findings are matched to the descriptions and diagrams of BC ranges to determine a score. Scores are documented for each animal.

Neu1 sialidase = details: NGF treated live TrkA-expressing cells; cited from earlier work

| Compound | Inhibition of TLR ligand-induced NFκB responses (in words) (TLR4/MD2) | Metastases (size, mm) [1] | Tumour weight [2] | Inhibition of Neu1 sialidase activity (in words) (Neu1 sialidase) |
| --- | --- | --- | --- | --- |
| CCOC(=O)C1=C[C@@H](OC(CC)CC)[C@H](NC(C)=O)[C@@H](N)C1 [oseltamivir phosphate] | significantly inhibited | 0.8-0.2 | marked but not significant reduction in tumour weight |  |
| CCC(CC)O[C@@H]1C=C(C(=O)O)C[C@H](N)[C@H]1NC(C)=O [oseltamivir carboxylate] |  |  |  | limited inhibitory effect |
